A short description of this series: general procedure: solution-phase peptide synthesis; iso-butyl chloroformate / N-methyl morpholine (mixed anhydride).

For the substance “Ac--Tyr--Val--Ala--Asp(Bzl)--CONH--CH2 CH2 Ph”, the step yield (coupling step) came out at 93%.
Regarding “Ac--Tyr--Val--Ala--Asp--CONH--CH2 CH2 Ph”, the step yield (late stage modification step) was 57%.
